# Reference: the supplement of paper PMC4604168 (melanoma cell lines)
# The list shows a part of the results. Repeats are few or missing, and single values can be far off.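 The apoptosis fraction was the count of cleaved-PARP antibody-stained nuclei relative to all DNA-stained nuclei, imaged in 1,536-well plates. Screening doses were set so most cells survived, and baseline and induced cleaved-PARP levels vary greatly across cell lines.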
# Test system: A2058
# Experiment: cleaved PARP positive nuclei fraction relative to DMSO control; melanoma cells; higher = more apoptosis
# Settings: library dose: low library concentration; 72 h
row,SMILES,cleaved PARP positive nuclei fraction
1,"Cn1sc(=O)n(Cc2ccccc2)c1=O + CNC(=O)c1cc(Oc2ccc(NC(=O)Nc3ccc(Cl)c(C(F)(F)F)c3)cc2)ccn1 [sorafenib] (first compound 0.4 µM, partner dose 0.4 µM)",156%
2,"CN(c1ncccc1CNc1nc(Nc2ccc3c(c2)CC(=O)N3)ncc1C(F)(F)F)S(C)(=O)=O + CS(=O)(=O)CCNCc1ccc(-c2ccc3ncnc(Nc4ccc(OCc5cccc(F)c5)c(Cl)c4)c3c2)o1 [lapatinib] (first compound 0.08 µM, partner dose 0.8 µM)",207%
3,"CCCCCCCCc1ccc(CCC(N)(CO)CO)cc1 [fingolimod] + CC(=O)O[C@@]12CO[C@@H]1C[C@H](O)[C@@]1(C)C(=O)[C@H](O)C3=C(C)[C@@H](OC(=O)[C@H](O)[C@@H](NC(=O)OC(C)(C)C)c4ccccc4)C[C@@](O)([C@@H](OC(=O)c4ccccc4)[C@H]21)C3(C)C [Docetaxel] (first compound 2 µM, partner dose 0.0001 µM)",743%
4,"CCCCCCCCc1ccc(CCC(N)(CO)CO)cc1 [fingolimod] + COCC[n+]1c2c(n(Cc3cnccn3)c1C)C(=O)c1ccccc1C2=O [YM155] (first compound 2 µM, partner dose 0.0004 µM)",168%
5,"NC1(c2ccc(-c3nc4ccn5c(=O)[nH]nc5c4cc3-c3ccccc3)cc2)CCC1 + C[C@@H](Oc1cc(-c2cnn(C3CCNCC3)c2)cnc1N)c1c(Cl)ccc(F)c1Cl [Crizotinib] (first compound 0.4 µM, partner dose 0.2 µM)",155%
6,"C[C@]1(O)C[C@@H](c2nc(-c3ccc4ccc(-c5ccccc5)nc4c3)c3c(N)nccn32)C1 + Cc1cc(Nc2cc(N3CCN(C)CC3)nc(/C=C/c3ccccc3)n2)n[nH]1 [ENMD2076] (first compound 0.4 µM, partner dose 0.04 µM)",117%
7,"Cn1sc(=O)n(Cc2ccccc2)c1=O + C[C@@H](Oc1cc(-c2cnn(C3CCNCC3)c2)cnc1N)c1c(Cl)ccc(F)c1Cl [Crizotinib] (first compound 0.4 µM, partner dose 0.2 µM)",82.5%
8,"NC(=O)c1ccc(N(C(N)=O)c2c(F)cccc2F)nc1-c1ccc(F)cc1F + CCCCCCCCc1ccc(CCC(N)(CO)CO)cc1 [fingolimod] (first compound 0.4 µM, partner dose 2 µM)",79.7%
9,"NC1(c2ccc(-c3nc4ccn5c(=O)[nH]nc5c4cc3-c3ccccc3)cc2)CCC1 + CO[C@H]1C[C@@H]2CC[C@@H](C)[C@@](O)(O2)C(=O)C(=O)N2CCCC[C@H]2C(=O)O[C@H]([C@H](C)C[C@@H]2CC[C@@H](OCCO)[C@H](OC)C2)CC(=O)[C@H](C)/C=C(\C)[C@@H](O)[C@@H](OC)C(=O)[C@H](C)C[C@H](C)/C=C/C=C/C=C/1C [everolimus] (first compound 0.4 µM, partner dose 0.02 µM)",140%

# Test system: A375
# Experiment: as above
# Settings: library dose: low library concentration; 72 h
row,SMILES,cleaved PARP positive nuclei fraction
1,"CS(=O)(=O)c1ccc(C(=O)Nc2ccc(Cl)c(-c3ccccn3)c2)c(Cl)c1 [vismodegib] + OCc1c[nH]c2ccccc12 [Indole-3-carbinol] (first compound 1 µM, partner dose 0.8 µM)",55.9%
2,"COc1ccc(C2=N[C@@H](c3ccc(Cl)cc3)[C@@H](c3ccc(Cl)cc3)N2C(=O)N2CCNC(=O)C2)c(OC(C)C)c1 [Nutlin-3] + NC1(c2ccc(-c3nc4ccn5c(=O)[nH]nc5c4cc3-c3ccccc3)cc2)CCC1 [MK2206] (first compound 0.1 µM, partner dose 0.4 µM)",120%
3,"COc1ccc(C2=N[C@@H](c3ccc(Cl)cc3)[C@@H](c3ccc(Cl)cc3)N2C(=O)N2CCNC(=O)C2)c(OC(C)C)c1 [Nutlin-3] + Clc1ccc(Nc2nnc(Cc3ccncc3)c3ccccc23)cc1 [vatalanib] (first compound 0.1 µM, partner dose 2 µM)",144%
4,"Cn1sc(=O)n(Cc2ccccc2)c1=O + CN(c1ncccc1CNc1nc(Nc2ccc3c(c2)CC(=O)N3)ncc1C(F)(F)F)S(C)(=O)=O [PF562271] (first compound 0.4 µM, partner dose 0.08 µM)",107%
5,"Cn1cnc2c(F)c(Nc3ccc(Br)cc3Cl)c(C(=O)NOCCO)cc21 [selumetinib] + CNC(=O)c1cc(Oc2ccc(NC(=O)Nc3ccc(Cl)c(C(F)(F)F)c3)cc2)ccn1 [sorafenib] (first compound 0.015 µM, partner dose 0.4 µM)",188%
6,"NC1(c2ccc(-c3nc4ccn5c(=O)[nH]nc5c4cc3-c3ccccc3)cc2)CCC1 + CCCS(=O)(=O)Nc1ccc(F)c(C(=O)c2c[nH]c3ncc(Cl)cc23)c1F [PLX4720] (first compound 0.4 µM, partner dose 0.08 µM)",327%
7,"NC(=O)c1ccc(N(C(N)=O)c2c(F)cccc2F)nc1-c1ccc(F)cc1F + C#Cc1cccc(Nc2ncnc3cc(OCCOC)c(OCCOC)cc23)c1 [erlotinib] (first compound 0.4 µM, partner dose 0.8 µM)",210%
8,"C[C@@H](N)c1ccc(C(=O)Nc2ccnc3[nH]ccc23)cc1 + Cn1sc(=O)n(Cc2ccccc2)c1=O [TDZD-8] (first compound 0.4 µM, partner dose 0.4 µM)",180%
9,"CS(=O)(=O)c1ccc(C(=O)Nc2ccc(Cl)c(-c3ccccn3)c2)c(Cl)c1 [vismodegib] + CCCCCCCCc1ccc(CCC(N)(CO)CO)cc1 [fingolimod] (first compound 1 µM, partner dose 2 µM)",106%
10,"Cn1cnc2c(F)c(Nc3ccc(Br)cc3Cl)c(C(=O)NOCCO)cc21 [selumetinib] + C#Cc1cccc(Nc2ncnc3cc(OCCOC)c(OCCOC)cc23)c1 [erlotinib] (first compound 0.015 µM, partner dose 0.8 µM)",108%
11,"CC1(C)CCC(c2ccc(Cl)cc2)=C(CN2CCN(c3ccc(C(=O)NS(=O)(=O)c4ccc(N[C@H](CCN5CCOCC5)CSc5ccccc5)c(S(=O)(=O)C(F)(F)F)c4)cc3)CC2)C1 + CS(=O)(=O)CCNCc1ccc(-c2ccc3ncnc(Nc4ccc(OCc5cccc(F)c5)c(Cl)c4)c3c2)o1 [lapatinib] (first compound 0.4 µM, partner dose 0.8 µM)",371%
12,"CC1(C)CCC(c2ccc(Cl)cc2)=C(CN2CCN(c3ccc(C(=O)NS(=O)(=O)c4ccc(N[C@H](CCN5CCOCC5)CSc5ccccc5)c(S(=O)(=O)C(F)(F)F)c4)cc3)CC2)C1 + O=C(O)[C@@H]1[O][Sb](=[O])([O][Sb]2(=[O])[O][C@H]([C@H](O)CO)[C@H](O)[C@H](C(=O)O)[O]2)[O][C@H]([C@H](O)CO)[C@@H]1O [stibogluconate] (first compound 0.4 µM, partner dose 2 µM)",441%
13,"CC1(C)CCC(c2ccc(Cl)cc2)=C(CN2CCN(c3ccc(C(=O)NS(=O)(=O)c4ccc(N[C@H](CCN5CCOCC5)CSc5ccccc5)c(S(=O)(=O)C(F)(F)F)c4)cc3)CC2)C1 + Nc1ccn([C@@H]2O[C@H](CO)[C@@H](O)C2(F)F)c(=O)n1 [gemcitabine] (first compound 0.4 µM, partner dose 0.0004 µM)",330%
14,"C[C@]1(O)C[C@@H](c2nc(-c3ccc4ccc(-c5ccccc5)nc4c3)c3c(N)nccn32)C1 + CC(=O)O[C@@]12CO[C@@H]1C[C@H](O)[C@@]1(C)C(=O)[C@H](O)C3=C(C)[C@@H](OC(=O)[C@H](O)[C@@H](NC(=O)OC(C)(C)C)c4ccccc4)C[C@@](O)([C@@H](OC(=O)c4ccccc4)[C@H]21)C3(C)C [Docetaxel] (first compound 0.4 µM, partner dose 0.0001 µM)",5230%
15,"CC1(C)CCC(c2ccc(Cl)cc2)=C(CN2CCN(c3ccc(C(=O)NS(=O)(=O)c4ccc(N[C@H](CCN5CCOCC5)CSc5ccccc5)c(S(=O)(=O)C(F)(F)F)c4)cc3)CC2)C1 + Cn1sc(=O)n(Cc2ccccc2)c1=O [TDZD-8] (first compound 0.4 µM, partner dose 0.4 µM)",597%
16,"C[C@]1(O)C[C@@H](c2nc(-c3ccc4ccc(-c5ccccc5)nc4c3)c3c(N)nccn32)C1 + OCc1c[nH]c2ccccc12 [Indole-3-carbinol] (first compound 0.4 µM, partner dose 0.8 µM)",549%
17,"CN(c1ncccc1CNc1nc(Nc2ccc3c(c2)CC(=O)N3)ncc1C(F)(F)F)S(C)(=O)=O + C[C@]1(c2nc3c(C(N)=O)cccc3[nH]2)CCCN1 [Veliparib] (first compound 0.08 µM, partner dose 1.4 µM)",120%
18,"C[C@]1(O)C[C@@H](c2nc(-c3ccc4ccc(-c5ccccc5)nc4c3)c3c(N)nccn32)C1 + CCCS(=O)(=O)Nc1ccc(F)c(C(=O)c2c[nH]c3ncc(Cl)cc23)c1F [PLX4720] (first compound 0.4 µM, partner dose 0.08 µM)",480%
19,"CN(c1ncccc1CNc1nc(Nc2ccc3c(c2)CC(=O)N3)ncc1C(F)(F)F)S(C)(=O)=O + Cn1c(=O)n(-c2ccc(C(C)(C)C#N)cc2)c2c3cc(-c4cnc5ccccc5c4)ccc3ncc21 [NVP-BEZ235] (first compound 0.08 µM, partner dose 0.004 µM)",215%
20,"NC(=O)c1ccc(N(C(N)=O)c2c(F)cccc2F)nc1-c1ccc(F)cc1F + CC(=O)c1c(C)c2cnc(Nc3ccc(N4CCNCC4)cn3)nc2n(C2CCCC2)c1=O [palbociclib] (first compound 0.4 µM, partner dose 0.04 µM)",102%

# Shown as tab-separated lines: entries from further up.
row	SMILES	cleaved PARP positive nuclei fraction
7	NC(=O)c1ccc(N(C(N)=O)c2c(F)cccc2F)nc1-c1ccc(F)cc1F + C#Cc1cccc(Nc2ncnc3cc(OCCOC)c(OCCOC)cc23)c1 [erlotinib] (first compound 0.4 µM, partner dose 0.8 µM)	210%
13	CC1(C)CCC(c2ccc(Cl)cc2)=C(CN2CCN(c3ccc(C(=O)NS(=O)(=O)c4ccc(N[C@H](CCN5CCOCC5)CSc5ccccc5)c(S(=O)(=O)C(F)(F)F)c4)cc3)CC2)C1 + Nc1ccn([C@@H]2O[C@H](CO)[C@@H](O)C2(F)F)c(=O)n1 [gemcitabine] (first compound 0.4 µM, partner dose 0.0004 µM)	330%
